Publication doi:10.1101/2022.10.24.513561
Results are given in words; binding and its absence hold for the method and conditions named. In cells and extracts the contact can be indirect. Here binding means that the protein was enriched with, or labelled near, the bait; the list need not be complete. Tags and fused reporters may be left off the sequences shown.

Amino acid sequences for entries named in this document (tags omitted).
UniProt P20585: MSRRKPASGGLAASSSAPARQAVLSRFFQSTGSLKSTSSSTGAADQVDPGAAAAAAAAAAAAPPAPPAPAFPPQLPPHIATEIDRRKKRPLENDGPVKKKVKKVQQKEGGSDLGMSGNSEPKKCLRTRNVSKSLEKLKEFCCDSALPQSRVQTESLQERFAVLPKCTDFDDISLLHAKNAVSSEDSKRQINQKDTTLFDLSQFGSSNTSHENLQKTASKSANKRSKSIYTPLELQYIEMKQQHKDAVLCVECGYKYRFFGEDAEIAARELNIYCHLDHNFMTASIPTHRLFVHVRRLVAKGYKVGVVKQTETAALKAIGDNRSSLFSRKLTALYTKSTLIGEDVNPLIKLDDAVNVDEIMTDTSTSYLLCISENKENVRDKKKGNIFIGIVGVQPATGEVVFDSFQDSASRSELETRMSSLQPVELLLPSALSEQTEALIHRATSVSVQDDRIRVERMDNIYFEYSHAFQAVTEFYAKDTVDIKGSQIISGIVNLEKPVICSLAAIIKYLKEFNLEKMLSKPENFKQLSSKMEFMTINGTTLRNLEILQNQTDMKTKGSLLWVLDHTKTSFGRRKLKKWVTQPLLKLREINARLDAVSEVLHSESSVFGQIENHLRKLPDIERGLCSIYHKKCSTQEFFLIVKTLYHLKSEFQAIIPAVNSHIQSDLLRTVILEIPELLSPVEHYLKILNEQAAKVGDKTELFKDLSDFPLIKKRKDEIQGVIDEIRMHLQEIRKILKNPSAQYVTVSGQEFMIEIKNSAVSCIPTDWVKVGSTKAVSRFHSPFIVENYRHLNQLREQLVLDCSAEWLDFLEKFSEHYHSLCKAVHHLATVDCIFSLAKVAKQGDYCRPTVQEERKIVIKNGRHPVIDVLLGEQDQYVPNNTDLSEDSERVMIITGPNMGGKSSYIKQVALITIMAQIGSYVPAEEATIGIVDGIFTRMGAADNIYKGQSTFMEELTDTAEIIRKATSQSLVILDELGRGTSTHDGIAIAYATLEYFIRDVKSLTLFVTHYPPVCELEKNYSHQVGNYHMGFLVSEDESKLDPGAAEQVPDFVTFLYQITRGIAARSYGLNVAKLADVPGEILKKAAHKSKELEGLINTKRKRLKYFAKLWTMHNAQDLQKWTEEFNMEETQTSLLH

B1: XPG (protein, UniProt P28715 1-1186)
chain: MGVQGLWKLLECSGRQVSPEALEGKILAVDISIWLNQALKGVRDRHGNSIENPHLLTLFHRLCKLLFFRIRPIFVFDGDAPLLKKQTLVKRRQRKDLASSDSRKTTEKLLKTFLKRQAIKTAFRSKRDEALPSLTQVRRENDLYVLPPLQEEEKHSSEEEDEKEWQERMNQKQALQEEFFHNPQAIDIESEDFSSLPPEVKHEILTDMKEFTKRRRTLFEAMPEESDDFSQYQLKGLLKKNYLNQHIEHVQKEMNQQHSGHIRRQYEDEGGFLKEVESRRVVSEDTSHYILIKGIQAKTVAEVDSESLPSSSKMHGMSFDVKSSPCEKLKTEKEPDATPPSPRTLLAMQAALLGSSSEEELESENRRQARGRNAPAAVDEGSISPRTLSAIKRALDDDEDVKVCAGDDVQTGGPGAEEMRINSSTENSDEGLKVRDGKGIPFTATLASSSVNSAEEHVASTNEGREPTDSVPKEQMSLVHVGTEAFPISDESMIKDRKDRLPLESAVVRHSDAPGLPNGRELTPASPTCTNSVSKNETHAEVLEQQNELCPYESKFDSSLLSSDDETKCKPNSASEVIGPVSLQETSSIVSVPSEAVDNVENVVSFNAKEHENFLETIQEQQTTESAGQDLISIPKAVEPMEIDSEESESDGSFIEVQSVISDEELQAEFPETSKPPSEQGEEELVGTREGEAPAESESLLRDNSERDDVDGEPQEAEKDAEDSLHEWQDINLEELETLESNLLAQQNSLKAQKQQQERIAATVTGQMFLESQELLRLFGIPYIQAPMEAEAQCAILDLTDQTSGTITDDSDIWLFGARHVYRNFFNKNKFVEYYQYVDFHNQLGLDRNKLINLAYLLGSDYTEGIPTVGCVTAMEILNEFPGHGLEPLLKFSEWWHEAQKNPKIRPNPHDTKVKKKLRTLQLTPGFPNPAVAEAYLKPVVDDSKGSFLWGKPDLDKIREFCQRYFGWNRTKTDESLFPVLKQLDAQQTQLRIDSFFRLAQQEKEDAKRIKSQRLNRAVTCMLRKEKEAAASEIEAVSVAMEKEFELLDKAKGKTQKRGITNTLEESSSLKRKRLSDSKGKNTCGGFLGETCLSESSDGSSSEDAESSSLMNVQRRTAAKEPKTSASDSQNSVKEAPVKNGGATTSSSSDSDDDGGKEKMVLVTARSVFGKKRRKLRRARGRKRKT

Biological target: T1, FLAG-BioID2-RPA4 (human) (UniProt Q13156)
T1 sequence: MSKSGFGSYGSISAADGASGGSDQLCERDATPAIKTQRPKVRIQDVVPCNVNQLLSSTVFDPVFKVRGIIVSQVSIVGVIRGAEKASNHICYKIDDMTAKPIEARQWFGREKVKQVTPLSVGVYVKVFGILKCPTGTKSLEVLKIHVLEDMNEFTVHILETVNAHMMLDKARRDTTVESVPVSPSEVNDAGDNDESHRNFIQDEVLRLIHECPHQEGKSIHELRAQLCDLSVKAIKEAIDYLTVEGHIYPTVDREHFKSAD
Assay: proximity labelling

| Molecule | binding |
| --- | --- |
| MSH3 (from UniProt P20585 1-1137) | binds |
| B1 | binds |
